Test results taken from article doi:10.1101/2023.01.18.524551.
These are yes or no findings as the source states them, for the method shown. Some results given as binding are weak or reduced against the parent protein; the word gives no strength.

By UniProt entry, the sequences of proteins in these tests, tags left out. Residues count along the entry.
UniProt Q16581: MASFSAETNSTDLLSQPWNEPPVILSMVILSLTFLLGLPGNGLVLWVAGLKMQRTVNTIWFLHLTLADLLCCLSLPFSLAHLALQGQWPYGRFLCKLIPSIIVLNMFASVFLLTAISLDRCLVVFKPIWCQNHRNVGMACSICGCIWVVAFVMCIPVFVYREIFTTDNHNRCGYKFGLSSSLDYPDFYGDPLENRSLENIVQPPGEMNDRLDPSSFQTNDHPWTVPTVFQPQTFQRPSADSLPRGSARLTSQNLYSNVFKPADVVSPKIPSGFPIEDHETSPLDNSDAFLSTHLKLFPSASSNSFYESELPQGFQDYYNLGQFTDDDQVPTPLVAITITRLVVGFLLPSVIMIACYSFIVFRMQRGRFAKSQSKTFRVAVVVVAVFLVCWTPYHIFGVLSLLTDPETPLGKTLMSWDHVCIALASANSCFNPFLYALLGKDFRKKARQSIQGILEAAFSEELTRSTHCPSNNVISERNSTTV
UniProt P21730: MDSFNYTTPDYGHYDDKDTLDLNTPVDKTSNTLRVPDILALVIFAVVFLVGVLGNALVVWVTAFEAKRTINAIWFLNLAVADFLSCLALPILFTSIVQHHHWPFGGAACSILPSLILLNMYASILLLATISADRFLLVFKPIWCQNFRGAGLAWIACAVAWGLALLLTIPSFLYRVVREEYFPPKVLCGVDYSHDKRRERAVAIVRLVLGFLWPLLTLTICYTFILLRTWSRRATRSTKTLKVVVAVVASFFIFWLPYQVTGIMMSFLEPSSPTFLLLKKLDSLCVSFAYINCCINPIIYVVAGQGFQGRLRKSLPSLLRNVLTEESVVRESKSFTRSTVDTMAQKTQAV
UniProt P01024, residues 672-748: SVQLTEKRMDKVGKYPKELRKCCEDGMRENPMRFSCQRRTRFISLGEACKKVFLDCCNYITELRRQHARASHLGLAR
UniProt P01031, residues 678-751: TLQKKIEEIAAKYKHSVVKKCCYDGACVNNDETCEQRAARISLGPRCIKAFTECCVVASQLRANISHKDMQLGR

Columns and labels:
[1] = target: full length human C3aR (residues 1-482), FLAG-BN at the N-terminus, His8 at the C-terminus (human) (UniProt Q16581); test: cryo-EM structure
[2] = target: full length human C5aR1 (residues 1-350), FLAG-BN at the N-terminus, His8 at the C-terminus (human) (UniProt P21730); test: cryo-EM structure

Row | binding [1] | binding [2] | Substance
1 | binds |  | His6-SUMOstar-C3a (recombinant human C3a, residues 1-77) (from UniProt P01024 672-748) (ligand)
2 |  | binds | His6-SUMOstar-C5a (recombinant human C5a, residues 1-74) (from UniProt P01031 678-751) (ligand)
